The target of test [1] is AXIN1, wild type, HA-tagged (UniProt O15169). Nature of the test: co-IP.
Test [2] concerns the target T1, WD repeat and SOCS box containing 1 (WSB1), wild type, FLAG-tagged (UniProt Q9Y6I7).
T1 sequence: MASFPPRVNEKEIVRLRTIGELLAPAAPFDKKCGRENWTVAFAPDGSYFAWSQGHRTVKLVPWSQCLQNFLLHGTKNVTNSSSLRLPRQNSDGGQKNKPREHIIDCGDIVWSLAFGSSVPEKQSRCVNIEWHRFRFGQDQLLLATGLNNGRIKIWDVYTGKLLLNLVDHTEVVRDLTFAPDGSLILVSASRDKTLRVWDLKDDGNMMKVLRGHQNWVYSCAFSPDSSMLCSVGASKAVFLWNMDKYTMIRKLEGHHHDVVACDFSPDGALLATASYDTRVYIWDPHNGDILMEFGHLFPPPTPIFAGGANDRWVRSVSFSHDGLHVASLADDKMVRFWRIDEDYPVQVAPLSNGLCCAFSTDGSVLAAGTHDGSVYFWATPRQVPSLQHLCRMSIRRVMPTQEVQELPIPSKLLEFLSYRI
Nature of the test: co-IP.

Protein sequences, listed by entry. Tags and fused reporters are not part of them.
UniProt O15169, whole entry: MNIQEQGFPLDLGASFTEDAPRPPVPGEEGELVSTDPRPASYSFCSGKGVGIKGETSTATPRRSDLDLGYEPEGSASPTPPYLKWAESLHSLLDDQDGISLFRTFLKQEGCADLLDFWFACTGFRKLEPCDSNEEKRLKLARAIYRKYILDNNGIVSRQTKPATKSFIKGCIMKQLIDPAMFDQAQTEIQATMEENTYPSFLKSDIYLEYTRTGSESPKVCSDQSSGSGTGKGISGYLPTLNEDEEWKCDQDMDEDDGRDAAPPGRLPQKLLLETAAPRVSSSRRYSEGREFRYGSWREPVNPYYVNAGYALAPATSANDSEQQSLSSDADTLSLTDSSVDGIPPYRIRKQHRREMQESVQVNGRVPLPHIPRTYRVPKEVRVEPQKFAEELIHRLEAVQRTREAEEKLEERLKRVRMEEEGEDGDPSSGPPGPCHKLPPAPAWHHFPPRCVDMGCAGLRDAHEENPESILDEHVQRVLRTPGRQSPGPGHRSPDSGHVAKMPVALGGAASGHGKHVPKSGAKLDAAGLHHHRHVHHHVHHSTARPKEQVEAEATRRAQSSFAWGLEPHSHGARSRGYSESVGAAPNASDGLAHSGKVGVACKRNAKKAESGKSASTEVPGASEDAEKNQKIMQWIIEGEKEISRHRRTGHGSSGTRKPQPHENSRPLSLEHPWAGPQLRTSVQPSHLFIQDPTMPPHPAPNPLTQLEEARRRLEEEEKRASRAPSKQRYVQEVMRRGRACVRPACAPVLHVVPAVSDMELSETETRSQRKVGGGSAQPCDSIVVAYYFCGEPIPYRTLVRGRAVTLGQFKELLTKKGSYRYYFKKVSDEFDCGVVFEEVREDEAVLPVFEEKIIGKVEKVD
UniProt P35222, whole entry: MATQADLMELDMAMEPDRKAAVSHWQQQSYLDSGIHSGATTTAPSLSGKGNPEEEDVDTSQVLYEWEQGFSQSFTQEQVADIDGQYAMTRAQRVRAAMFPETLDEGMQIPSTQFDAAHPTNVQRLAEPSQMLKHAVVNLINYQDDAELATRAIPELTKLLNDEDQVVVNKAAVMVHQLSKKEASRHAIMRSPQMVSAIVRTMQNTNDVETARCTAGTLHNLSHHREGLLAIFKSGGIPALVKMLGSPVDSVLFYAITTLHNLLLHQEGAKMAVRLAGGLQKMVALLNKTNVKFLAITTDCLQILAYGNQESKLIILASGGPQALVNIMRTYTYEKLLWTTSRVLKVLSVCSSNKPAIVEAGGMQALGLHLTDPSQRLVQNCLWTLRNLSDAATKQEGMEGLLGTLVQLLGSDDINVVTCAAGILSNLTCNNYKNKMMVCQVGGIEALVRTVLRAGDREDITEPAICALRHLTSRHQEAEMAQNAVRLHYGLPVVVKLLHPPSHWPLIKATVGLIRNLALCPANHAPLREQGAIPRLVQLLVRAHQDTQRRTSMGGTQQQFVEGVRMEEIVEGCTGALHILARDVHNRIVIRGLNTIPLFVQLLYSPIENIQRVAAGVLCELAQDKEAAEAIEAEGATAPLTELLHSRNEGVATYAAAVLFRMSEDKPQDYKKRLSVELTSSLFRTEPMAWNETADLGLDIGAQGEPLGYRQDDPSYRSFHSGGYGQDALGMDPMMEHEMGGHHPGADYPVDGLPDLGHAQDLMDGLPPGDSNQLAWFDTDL
UniProt P49841, whole entry: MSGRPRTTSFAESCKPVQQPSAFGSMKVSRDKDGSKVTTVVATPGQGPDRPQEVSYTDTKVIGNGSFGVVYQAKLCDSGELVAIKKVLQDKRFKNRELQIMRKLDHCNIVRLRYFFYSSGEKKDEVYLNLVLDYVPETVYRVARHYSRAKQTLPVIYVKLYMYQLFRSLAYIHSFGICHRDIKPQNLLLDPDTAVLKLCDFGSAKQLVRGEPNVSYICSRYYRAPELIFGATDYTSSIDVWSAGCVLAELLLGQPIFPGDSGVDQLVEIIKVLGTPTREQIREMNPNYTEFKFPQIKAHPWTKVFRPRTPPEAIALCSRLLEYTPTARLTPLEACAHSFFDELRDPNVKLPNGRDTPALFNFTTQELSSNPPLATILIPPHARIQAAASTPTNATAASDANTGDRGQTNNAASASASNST
UniProt Q9Y297, whole entry: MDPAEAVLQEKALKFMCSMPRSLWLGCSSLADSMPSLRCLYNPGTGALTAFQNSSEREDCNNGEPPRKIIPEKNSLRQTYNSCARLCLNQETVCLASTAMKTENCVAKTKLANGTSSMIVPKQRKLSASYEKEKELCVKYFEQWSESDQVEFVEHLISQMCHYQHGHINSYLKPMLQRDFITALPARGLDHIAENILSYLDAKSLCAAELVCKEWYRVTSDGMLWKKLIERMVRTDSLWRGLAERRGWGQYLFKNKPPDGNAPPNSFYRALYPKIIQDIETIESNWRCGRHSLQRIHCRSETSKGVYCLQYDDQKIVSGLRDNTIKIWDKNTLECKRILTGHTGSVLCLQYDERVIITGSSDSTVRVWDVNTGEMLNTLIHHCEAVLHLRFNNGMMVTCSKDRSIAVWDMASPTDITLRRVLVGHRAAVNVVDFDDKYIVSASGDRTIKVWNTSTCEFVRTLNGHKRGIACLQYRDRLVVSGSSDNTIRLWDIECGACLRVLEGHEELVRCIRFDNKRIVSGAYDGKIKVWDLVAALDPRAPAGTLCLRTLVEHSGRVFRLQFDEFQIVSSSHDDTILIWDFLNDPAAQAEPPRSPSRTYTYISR
UniProt P67775, whole entry: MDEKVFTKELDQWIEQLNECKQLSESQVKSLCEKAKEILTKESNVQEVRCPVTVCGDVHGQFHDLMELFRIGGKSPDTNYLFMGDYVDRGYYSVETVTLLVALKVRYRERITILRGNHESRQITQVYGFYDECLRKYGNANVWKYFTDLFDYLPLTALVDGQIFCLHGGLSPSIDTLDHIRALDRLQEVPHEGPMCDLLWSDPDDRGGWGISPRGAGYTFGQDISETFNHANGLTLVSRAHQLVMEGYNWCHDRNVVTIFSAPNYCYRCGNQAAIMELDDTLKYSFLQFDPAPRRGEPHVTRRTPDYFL

In test [3] the target is T2, GST-WSB1 (recombinant GST-tagged WSB1) (UniProt Q9Y6I7).
T2 sequence: T1 sequence
Nature of the test: pull-down.

These are yes or no findings as the source states them, for the method shown. In cells and extracts the contact can be indirect. Some binding calls cover weakened binding; strength is not graded here. For some of these results: Tags and fused reporters may be left off the sequences shown.

Turning to “β-catenin, endogenous (from UniProt P35222 1-781)”, in test [1], the binding result is “binds”.
Turning to “AXIN1, endogenous (from UniProt O15169 1-862)”, the binding entry in test [2] is listed as “binds”.
With “glycogen synthase kinase 3β (GSK3β), HA-tagged (from UniProt P49841 1-420) (enzyme)”, the binding entry in test [3] is given as “no binding”.
As for “β-TRCP, endogenous (from UniProt Q9Y297 1-605)”, the binding result in test [1] and in test [2] was “binds” throughout.
In the case of “PPP2CA, endogenous (from UniProt P67775 1-309) (enzyme)”, the binding entry in test [1] is “binds”.
For “PPP2CA (catalytic subunit of serine/threonine protein phosphatase 2A), FLAG-tagged (from UniProt P67775 1-309) (enzyme)”, in test [1], the binding result is reported as “binds”.
As to “E3 ubiquitin ligase adaptor β-TRCP, HA-tagged (from UniProt Q9Y297 1-605)”, in test [2], the binding result is “binds”.
“AXIN1, wild type, HA-tagged (from UniProt O15169 1-862)”: the binding result in test [3] and in test [2] was “binds” in each case.

The record behind these values is paper doi:10.1101/2020.09.25.312678.
